Data as given in US7361658B2, “2-acylaminothiazole derivative or salt thereof” (Astellas Pharma Inc., priority 2003, dated 2008).
Some results were stated once for a whole list of compounds, not compound by compound.

Target: T1, human c-mpl-Ba/F3 cells (Homo sapiens, UniProt P40238)
T1 construct: expressed in transfected cells; host or cells: Ba/F3 (murine pro-B cells) expressing human c-mpl
T1 sequence (P40238 26-635): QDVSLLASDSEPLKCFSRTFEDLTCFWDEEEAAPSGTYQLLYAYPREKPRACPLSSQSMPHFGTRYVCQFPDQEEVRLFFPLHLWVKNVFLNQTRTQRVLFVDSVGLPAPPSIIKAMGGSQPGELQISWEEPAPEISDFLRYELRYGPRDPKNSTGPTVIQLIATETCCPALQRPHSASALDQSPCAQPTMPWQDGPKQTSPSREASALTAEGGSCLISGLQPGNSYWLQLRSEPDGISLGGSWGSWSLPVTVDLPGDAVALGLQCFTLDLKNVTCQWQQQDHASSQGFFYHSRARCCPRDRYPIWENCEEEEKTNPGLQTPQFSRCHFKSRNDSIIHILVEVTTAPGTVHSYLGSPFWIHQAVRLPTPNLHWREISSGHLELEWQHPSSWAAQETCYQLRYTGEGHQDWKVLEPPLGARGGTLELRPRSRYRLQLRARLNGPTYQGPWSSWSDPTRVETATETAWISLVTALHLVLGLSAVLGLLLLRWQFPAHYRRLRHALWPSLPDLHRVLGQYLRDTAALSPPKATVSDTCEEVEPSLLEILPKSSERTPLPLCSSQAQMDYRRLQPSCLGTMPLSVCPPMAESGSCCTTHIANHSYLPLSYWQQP
Experiment: Mouse oral administration test: human c-mpl-Ba/F3 cell growth activity of a plasma after oral administration
Assay type: in vivo
Details: lower dose 10 mg/kg p.o.; dilution rate not given
Protocol: (iii) Mouse Oral Administration Test
3 mg/kg or 10 mg/kg (100 mg/kg in Comparative Compounds 1 to 3) of a test compound dissolved or suspended in a 0.5% methylcellulose aqueous solution was orally administered to a male ICR mouse. After 2 hours from administration, a blood was sampled from the subabdominal large vein using 1/10-volume 3.8% sodium citrate as an anticoagulant. Centrifugation was performed at 12,000 rpm for 3 minutes. The resulting plasma was heated at 56° C. for 30 minutes, and added to a system of the human c-mpl-Ba/F3 cell growth test described in (i) such that the final concentration of the plasma reached 0.3%, 1% or 3% (10% in Comparative Compounds 1 to 3) to measure a cell growth activity. The cell growth activity (%) of each plasma was measured when the maximum cell growth activity of each test compound was defined as 100%.

SMILES	cell growth activity
O=C(O)/C(Cl)=C/c1ccc(C(=O)Nc2nc(-c3ccc(Cl)c(Cl)c3)cs2)cc1 [Comparative Compound 2, reference compound]	less than 10%
Cc1sc(NC(=O)c2ccc(/C=C(\Cl)C(=O)O)cc2)nc1-c1cccc(C(F)(F)F)c1 [Comparative Compound 3, reference compound]	less than 10%
